From the supplement of paper PMC12067093, “Discovery and optimisation of a covalent ligand for TRIM25 and its application to targeted protein ubiquitination” (Chemical Science, 2025)
This is one part of the list.

The chains behind the UniProt entries cited, without tags or fusion partners. Where a name states a change or a piece, a line headed by the entry shows the natural chain unless it says otherwise.
UniProt Q7Z2Z2: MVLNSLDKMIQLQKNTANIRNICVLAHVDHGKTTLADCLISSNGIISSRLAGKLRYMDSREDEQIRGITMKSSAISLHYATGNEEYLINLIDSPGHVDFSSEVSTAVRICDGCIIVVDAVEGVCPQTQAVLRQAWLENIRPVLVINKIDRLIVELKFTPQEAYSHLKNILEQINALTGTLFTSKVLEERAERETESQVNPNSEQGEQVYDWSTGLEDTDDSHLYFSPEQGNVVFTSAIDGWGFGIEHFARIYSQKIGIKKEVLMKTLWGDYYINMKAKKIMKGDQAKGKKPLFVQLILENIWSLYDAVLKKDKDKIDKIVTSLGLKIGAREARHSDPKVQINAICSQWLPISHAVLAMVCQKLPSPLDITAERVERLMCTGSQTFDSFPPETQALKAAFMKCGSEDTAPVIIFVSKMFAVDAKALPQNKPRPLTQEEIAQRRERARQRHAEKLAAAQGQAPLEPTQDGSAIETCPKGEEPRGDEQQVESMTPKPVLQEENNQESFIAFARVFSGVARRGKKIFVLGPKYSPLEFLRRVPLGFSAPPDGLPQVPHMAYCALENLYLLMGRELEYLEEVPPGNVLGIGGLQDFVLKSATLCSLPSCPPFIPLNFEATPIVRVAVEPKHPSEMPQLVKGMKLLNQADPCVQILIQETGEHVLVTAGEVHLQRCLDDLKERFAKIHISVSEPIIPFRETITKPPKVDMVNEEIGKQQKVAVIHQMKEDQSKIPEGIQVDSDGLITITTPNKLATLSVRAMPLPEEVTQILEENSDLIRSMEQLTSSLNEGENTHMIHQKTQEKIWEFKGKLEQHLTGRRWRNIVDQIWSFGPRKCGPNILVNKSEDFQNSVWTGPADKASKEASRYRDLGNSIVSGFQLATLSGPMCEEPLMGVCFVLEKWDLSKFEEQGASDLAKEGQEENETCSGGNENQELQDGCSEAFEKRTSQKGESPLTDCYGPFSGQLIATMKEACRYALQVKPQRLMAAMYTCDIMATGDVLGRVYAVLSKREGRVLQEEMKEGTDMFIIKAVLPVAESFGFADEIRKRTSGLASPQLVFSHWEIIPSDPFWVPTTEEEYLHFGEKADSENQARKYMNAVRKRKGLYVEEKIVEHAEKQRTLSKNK
UniProt Q16610: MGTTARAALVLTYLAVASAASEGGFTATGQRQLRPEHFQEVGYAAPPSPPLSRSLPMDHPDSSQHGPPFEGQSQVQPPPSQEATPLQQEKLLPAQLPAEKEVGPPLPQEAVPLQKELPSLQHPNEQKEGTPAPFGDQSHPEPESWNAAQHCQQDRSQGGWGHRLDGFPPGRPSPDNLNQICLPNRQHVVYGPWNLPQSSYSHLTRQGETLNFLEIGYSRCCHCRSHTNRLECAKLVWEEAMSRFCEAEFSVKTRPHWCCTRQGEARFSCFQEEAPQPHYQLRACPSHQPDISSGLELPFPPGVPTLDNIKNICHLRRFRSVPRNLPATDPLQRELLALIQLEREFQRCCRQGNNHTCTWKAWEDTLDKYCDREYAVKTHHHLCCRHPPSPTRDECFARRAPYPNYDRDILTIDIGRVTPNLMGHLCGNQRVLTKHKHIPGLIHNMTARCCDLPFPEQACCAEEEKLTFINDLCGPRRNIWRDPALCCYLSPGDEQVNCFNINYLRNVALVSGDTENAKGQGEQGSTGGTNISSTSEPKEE
UniProt Q96C19: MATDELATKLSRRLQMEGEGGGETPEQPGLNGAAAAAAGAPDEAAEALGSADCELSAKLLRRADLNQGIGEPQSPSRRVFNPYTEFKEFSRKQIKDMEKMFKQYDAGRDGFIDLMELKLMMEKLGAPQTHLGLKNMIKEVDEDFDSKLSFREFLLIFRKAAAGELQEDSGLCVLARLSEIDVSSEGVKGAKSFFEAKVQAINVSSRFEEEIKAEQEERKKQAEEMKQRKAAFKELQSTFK
UniProt Q14152, whole entry, looked up: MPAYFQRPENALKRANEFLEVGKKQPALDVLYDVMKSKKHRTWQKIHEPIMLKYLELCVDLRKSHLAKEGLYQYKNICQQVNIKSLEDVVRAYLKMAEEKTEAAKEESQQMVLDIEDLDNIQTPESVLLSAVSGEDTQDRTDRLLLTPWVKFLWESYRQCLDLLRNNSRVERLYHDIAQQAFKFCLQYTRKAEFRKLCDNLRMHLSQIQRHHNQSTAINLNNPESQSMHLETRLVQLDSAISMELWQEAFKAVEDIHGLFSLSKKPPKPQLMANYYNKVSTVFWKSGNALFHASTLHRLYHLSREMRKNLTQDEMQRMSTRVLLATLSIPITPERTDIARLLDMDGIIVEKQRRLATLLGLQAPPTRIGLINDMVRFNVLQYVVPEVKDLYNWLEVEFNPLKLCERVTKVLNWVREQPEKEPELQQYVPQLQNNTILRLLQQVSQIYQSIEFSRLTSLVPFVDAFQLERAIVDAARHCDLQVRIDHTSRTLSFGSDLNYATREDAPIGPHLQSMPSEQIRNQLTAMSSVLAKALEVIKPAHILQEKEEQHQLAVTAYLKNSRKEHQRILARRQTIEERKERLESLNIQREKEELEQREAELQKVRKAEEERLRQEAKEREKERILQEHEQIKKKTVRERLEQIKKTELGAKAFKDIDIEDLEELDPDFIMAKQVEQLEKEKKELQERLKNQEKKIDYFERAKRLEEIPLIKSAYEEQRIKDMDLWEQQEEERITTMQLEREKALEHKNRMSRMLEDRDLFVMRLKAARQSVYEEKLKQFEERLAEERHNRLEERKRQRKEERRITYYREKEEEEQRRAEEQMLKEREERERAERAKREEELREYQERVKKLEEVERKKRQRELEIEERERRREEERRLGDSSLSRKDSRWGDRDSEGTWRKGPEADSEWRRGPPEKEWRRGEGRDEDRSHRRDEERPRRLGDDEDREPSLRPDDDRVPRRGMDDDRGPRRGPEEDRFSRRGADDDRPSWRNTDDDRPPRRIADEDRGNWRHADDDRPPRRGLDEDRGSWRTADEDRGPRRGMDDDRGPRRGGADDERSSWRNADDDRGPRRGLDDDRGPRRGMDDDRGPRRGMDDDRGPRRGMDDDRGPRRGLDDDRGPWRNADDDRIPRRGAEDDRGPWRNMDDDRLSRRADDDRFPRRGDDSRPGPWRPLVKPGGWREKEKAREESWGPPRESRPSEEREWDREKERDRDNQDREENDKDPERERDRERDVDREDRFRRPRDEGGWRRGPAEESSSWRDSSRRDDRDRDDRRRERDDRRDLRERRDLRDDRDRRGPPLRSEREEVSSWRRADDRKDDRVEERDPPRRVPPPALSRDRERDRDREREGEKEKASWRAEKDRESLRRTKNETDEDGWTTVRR
UniProt Q15075: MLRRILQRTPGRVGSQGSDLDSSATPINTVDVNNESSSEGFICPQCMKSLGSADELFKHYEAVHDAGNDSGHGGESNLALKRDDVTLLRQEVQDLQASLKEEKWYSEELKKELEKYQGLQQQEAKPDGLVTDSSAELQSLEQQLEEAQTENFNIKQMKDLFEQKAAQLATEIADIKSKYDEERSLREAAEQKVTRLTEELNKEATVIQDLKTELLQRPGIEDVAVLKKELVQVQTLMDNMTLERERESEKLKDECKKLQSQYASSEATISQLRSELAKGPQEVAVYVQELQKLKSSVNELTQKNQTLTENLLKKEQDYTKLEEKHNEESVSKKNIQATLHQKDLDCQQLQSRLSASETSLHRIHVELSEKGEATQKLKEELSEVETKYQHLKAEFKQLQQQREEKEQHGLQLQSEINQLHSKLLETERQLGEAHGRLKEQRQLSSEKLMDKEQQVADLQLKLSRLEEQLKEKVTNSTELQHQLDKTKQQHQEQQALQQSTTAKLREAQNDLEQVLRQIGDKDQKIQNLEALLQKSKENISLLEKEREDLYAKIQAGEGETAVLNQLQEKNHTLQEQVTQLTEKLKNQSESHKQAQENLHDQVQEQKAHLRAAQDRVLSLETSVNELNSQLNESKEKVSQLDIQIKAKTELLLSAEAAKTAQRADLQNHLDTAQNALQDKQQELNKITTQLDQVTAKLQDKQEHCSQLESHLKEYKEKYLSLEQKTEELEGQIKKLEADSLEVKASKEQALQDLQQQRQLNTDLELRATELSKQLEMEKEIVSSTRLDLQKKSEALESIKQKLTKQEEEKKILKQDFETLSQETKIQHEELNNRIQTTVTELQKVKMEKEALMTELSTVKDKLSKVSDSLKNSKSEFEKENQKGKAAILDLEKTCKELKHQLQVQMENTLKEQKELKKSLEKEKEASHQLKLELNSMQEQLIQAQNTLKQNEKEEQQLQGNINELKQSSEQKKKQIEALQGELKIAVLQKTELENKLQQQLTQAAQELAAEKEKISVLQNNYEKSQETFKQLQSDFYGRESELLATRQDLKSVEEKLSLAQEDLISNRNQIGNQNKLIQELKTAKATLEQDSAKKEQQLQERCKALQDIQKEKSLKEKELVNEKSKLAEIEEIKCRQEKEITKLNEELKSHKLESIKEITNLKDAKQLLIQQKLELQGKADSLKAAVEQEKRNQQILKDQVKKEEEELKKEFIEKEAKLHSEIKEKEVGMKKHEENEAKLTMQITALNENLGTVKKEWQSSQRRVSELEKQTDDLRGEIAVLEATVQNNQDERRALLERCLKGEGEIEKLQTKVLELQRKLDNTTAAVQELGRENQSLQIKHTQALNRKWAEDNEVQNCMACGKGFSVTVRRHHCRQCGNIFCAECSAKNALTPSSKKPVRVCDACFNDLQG
UniProt O75521: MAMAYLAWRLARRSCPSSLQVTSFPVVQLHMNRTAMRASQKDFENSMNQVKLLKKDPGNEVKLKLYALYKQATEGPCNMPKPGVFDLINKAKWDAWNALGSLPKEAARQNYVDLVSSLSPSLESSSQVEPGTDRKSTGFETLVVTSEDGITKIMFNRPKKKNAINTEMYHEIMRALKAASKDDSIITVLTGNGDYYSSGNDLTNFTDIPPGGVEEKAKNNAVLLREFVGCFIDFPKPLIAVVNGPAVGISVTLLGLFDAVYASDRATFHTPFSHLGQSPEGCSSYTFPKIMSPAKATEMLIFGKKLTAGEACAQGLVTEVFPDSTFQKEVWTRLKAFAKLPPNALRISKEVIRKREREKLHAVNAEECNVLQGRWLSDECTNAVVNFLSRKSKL
UniProt P41091, whole entry, looked up: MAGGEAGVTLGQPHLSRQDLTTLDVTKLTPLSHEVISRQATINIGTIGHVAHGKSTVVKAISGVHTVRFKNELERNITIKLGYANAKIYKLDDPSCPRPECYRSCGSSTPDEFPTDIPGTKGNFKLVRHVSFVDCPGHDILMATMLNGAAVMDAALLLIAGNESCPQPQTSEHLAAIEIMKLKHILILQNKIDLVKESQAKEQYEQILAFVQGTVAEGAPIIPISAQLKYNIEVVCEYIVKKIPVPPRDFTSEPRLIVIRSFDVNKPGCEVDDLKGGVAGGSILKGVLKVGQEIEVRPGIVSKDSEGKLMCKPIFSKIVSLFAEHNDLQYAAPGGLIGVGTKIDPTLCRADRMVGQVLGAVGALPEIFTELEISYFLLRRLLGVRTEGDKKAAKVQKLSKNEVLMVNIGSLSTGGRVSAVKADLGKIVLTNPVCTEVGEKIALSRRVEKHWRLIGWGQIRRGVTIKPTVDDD
UniProt Q15029: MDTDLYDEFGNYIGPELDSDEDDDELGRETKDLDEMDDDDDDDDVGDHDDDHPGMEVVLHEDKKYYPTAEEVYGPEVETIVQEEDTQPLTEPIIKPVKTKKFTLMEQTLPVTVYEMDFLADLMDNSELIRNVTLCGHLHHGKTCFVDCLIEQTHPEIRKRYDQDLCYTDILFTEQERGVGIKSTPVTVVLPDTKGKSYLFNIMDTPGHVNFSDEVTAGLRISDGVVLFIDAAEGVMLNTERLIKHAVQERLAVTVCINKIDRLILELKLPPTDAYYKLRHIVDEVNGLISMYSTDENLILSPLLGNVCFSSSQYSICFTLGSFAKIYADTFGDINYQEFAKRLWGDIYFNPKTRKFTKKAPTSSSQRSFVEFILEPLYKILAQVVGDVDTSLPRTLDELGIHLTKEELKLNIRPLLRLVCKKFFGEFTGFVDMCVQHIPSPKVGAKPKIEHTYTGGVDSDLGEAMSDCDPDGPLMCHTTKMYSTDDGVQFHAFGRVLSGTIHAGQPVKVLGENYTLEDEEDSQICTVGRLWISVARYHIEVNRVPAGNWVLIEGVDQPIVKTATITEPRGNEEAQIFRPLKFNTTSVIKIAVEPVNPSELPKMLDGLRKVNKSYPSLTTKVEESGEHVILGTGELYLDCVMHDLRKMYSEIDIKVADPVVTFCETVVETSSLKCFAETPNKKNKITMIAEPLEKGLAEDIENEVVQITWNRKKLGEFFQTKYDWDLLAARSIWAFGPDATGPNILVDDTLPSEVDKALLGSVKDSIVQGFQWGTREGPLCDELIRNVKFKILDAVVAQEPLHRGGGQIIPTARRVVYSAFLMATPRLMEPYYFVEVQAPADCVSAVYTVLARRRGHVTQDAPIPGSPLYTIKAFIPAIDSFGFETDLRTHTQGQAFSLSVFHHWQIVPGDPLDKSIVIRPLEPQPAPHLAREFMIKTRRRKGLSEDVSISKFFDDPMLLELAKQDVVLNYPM

Compound: Cc1cc(ccc1-c1ccccc1)C(=O)N1CCCN(CC1)C(=O)CCl [compound 10]
Assay: probe-labelled cysteine peptide fold change vs DMSO (competition) (log2 fold change); higher = less target engagement (more negative = stronger competition)
Conditions: THP-1, incubation time: 4 h
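Further: competitive profiling in live THP-1 cells: cysteine peptides tagged with an iodoacetamide desthiobiotin (IA-DTB) probe, intensity after compound treatment relative to DMSO-treated cells.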

Row | Target | probe-labelled cysteine peptide fold change (10 µM) | probe-labelled cysteine peptide fold change (50 µM)
1 | EDC3_Q96F86_272_EFCTDSGLVVPSISYELHKK (UniProt Q96F86) | 0.00217 | -0.291
2 | EFL1_Q7Z2Z2_953_GESPLTDCYGPFSGQLIATMK (UniProt Q7Z2Z2) | -0.327 | 0.0206
3 | EIF1AX_P47813_51_LEAMCFDGVKR (UniProt P47813) | 0.0401 | -0.252
4 | EHMT2_Q96KQ7_754_EEDGSTCLHHAAK (UniProt Q96KQ7) | 0.126 | 0.14
5 | ECM1_Q16610_450_CCDLPFPEQACCAEEEK (UniProt Q16610) | -0.221 | 0.0818
6 | EFHD2_Q96C19_172_KAAAGELQEDSGLCVLAR (UniProt Q96C19) | -0.161 | -0.894
7 | EEF2_P13639_290_TFCQLILDPIFK (UniProt P13639) | -0.136 | -0.00556
8 | EFL1_Q7Z2Z2_831_CGPNILVNK (UniProt Q7Z2Z2) | -0.0761 | 0.083
9 | EIF2B5_Q13144_196_CHEDNVVVAVDSTTNR (UniProt Q13144) | -0.0717 | -0.0586
10 | EIF3A_Q14152_198_LCDNLR (UniProt Q14152) | 0.0881 | 0.284
11 | EEA1_Q15075_1402_VCDACFNDLQG (UniProt Q15075) | 0.0751 | -0.397
12 | ECI2_O75521_368_LHAVNAEECNVLQGR (UniProt O75521) | -0.304 | -0.0596
13 | EIF2S3_P41091_311_LMCKPIFSK (UniProt P41091) | -0.301 | -0.91
14 | EIF3A_Q14152_58_YLELCVDLRK (UniProt Q14152) | -0.0828 | -0.139
15 | EHMT1_Q9H9B1_954_ENRYDCVVLFLSR (UniProt Q9H9B1) | 0.235 | 0.0096
16 | EDC4_Q6P2E9_1130_SCQAMFQQINDSFR (UniProt Q6P2E9) | 0.234 | 0.263
17 | EEF2_P13639_369_CELLYEGPPDDEAAMGIK (UniProt P13639) | -0.0905 | -0.05
18 | EIF2B5_Q13144_414_VAAGAQIHQSLLCDNAEVK (UniProt Q13144) | -0.0816 | -0.131
19 | EHD4_Q9H223_493+495_LADCDCDGMLDEEEFALAK (UniProt Q9H223) | 0.00822 | -0.434

Part of the list above, in CSV form:
Row,Target,probe-labelled cysteine peptide fold change (10 µM),probe-labelled cysteine peptide fold change (50 µM)
4,EHMT2_Q96KQ7_754_EEDGSTCLHHAAK (UniProt Q96KQ7),0.126,0.14
5,ECM1_Q16610_450_CCDLPFPEQACCAEEEK (UniProt Q16610),-0.221,0.0818
6,EFHD2_Q96C19_172_KAAAGELQEDSGLCVLAR (UniProt Q96C19),-0.161,-0.894
7,EEF2_P13639_290_TFCQLILDPIFK (UniProt P13639),-0.136,-0.00556
8,EFL1_Q7Z2Z2_831_CGPNILVNK (UniProt Q7Z2Z2),-0.0761,0.083
9,EIF2B5_Q13144_196_CHEDNVVVAVDSTTNR (UniProt Q13144),-0.0717,-0.0586
10,EIF3A_Q14152_198_LCDNLR (UniProt Q14152),0.0881,0.284
11,EEA1_Q15075_1402_VCDACFNDLQG (UniProt Q15075),0.0751,-0.397
12,ECI2_O75521_368_LHAVNAEECNVLQGR (UniProt O75521),-0.304,-0.0596
13,EIF2S3_P41091_311_LMCKPIFSK (UniProt P41091),-0.301,-0.91

Additional entries

Row | Target | probe-labelled cysteine peptide fold change (10 µM) | probe-labelled cysteine peptide fold change (50 µM)
20 | EHMT2_Q96KQ7_985_NITHLQHCTCVDDCSSSNCLCGQLSIR (UniProt Q96KQ7) | -0.354 | 0.359
21 | EHMT2_Q96KQ7_481_VALMVLCETHR (UniProt Q96KQ7) | -0.000299 | -0.0784
22 | EHBP1L1_Q8N3D4_1364_FQDTSQYVCAELQALEQEQR (UniProt Q8N3D4) | -0.00798 | -0.434
23 | ECPAS_Q5VYK3_1364_LCELIR (UniProt Q5VYK3) | 0.0333 | 0.207
24 | EIF2S2_P20042_302_LYFLQCETCHSR (UniProt P20042) | 0.0251 | 0.074
25 | EIF3B_P55884_700_DRFCQLLWR (UniProt P55884) | -0.0412 | 0.305
26 | EDEM1_Q92611_160_GMFVFGYDNYMAHAFPQDELNPIHCR (UniProt Q92611) | 0.032 | 0.21
27 | ECPAS_Q5VYK3_1459_TSCALTIHAIGR (UniProt Q5VYK3) | 0.0645 | 0.102
28 | EIF3A_Q14152_478_HCDLQVR (UniProt Q14152) | 0.0566 | -0.0509
29 | EEF1A1_P68104_234_KDGNASGTTLLEALDCILPPTRPTDK (UniProt P68104) | -0.00051 | -0.0488
30 | EEF1A1_P68104_234_DGNASGTTLLEALDCILPPTR (UniProt P68104) | -0.247 | -0.0429
31 | ECHS1_P30084_62_ALNALCDGLIDELNQALK (UniProt P30084) | 0.209 | 0.177
32 | EED_O75530_401_CTTLTHHK (UniProt O75530) | -0.000298 | -0.134
33 | EFTUD2_Q15029_144_TCFVDCLIEQTHPEIR (UniProt Q15029) | -0.166 | 0.0774
34 | EFL1_Q7Z2Z2_23_NICVLAHVDHGK (UniProt Q7Z2Z2) | 0.0879 | 0.0694
35 | ECT2_Q9H8V3_661_QIFDVVYEVDGCPANLLSSHR (UniProt Q9H8V3) | 0.0914 | 0.0103
36 | EFTUD2_Q15029_674_CFAETPNK (UniProt Q15029) | -0.163 | 0.406
37 | EFNB1_P98172_89+101_LYLVRPEQAAACSTVLDPNVLVTCNRPEQEIR (UniProt P98172) | -0.388 | -0.49
38 | EEF1A1_P68104_363_GNVAGDSKNDPPMEAAGFTAQVIILNHPGQISAGYAPVLDCHTAHIACK (UniProt P68104) | -0.147 | -0.574
